The target in experiment [1] is T1, SoBfr1 expressed in S. oneidensis Δbfr12 (Shewanella oneidensis) (UniProt Q8EHV0).
T1 sequence: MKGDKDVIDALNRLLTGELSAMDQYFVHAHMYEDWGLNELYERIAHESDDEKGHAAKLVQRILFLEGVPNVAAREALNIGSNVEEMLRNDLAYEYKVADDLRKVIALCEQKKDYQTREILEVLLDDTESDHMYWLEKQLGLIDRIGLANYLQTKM
In words: native gel or EMSA + other: negative-stain TEM; SoBfr1, SoBfr2 and PaBfrB co-expressed in S. oneidensis Δbfr12 grown in irMS, MS or ilMS; 6% native PAGE with iron staining; TEM of the SoBfr12/PaBfrB particles. (Mobility shift assays separate free from complexed probe on a gel.)

Experiment [2] concerns the target T2, SoBfr2 expressed in S. oneidensis Δbfr12 (Shewanella oneidensis) (UniProt Q8EHV1).
T2 sequence: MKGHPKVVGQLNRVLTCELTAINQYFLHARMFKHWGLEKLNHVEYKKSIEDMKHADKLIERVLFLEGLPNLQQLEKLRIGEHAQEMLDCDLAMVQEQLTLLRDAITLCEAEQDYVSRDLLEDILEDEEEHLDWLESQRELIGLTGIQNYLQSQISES
The experiment is described as above.

Among the data in publication PMC12120770 are binding values, retold here.

These are yes or no findings as the source states them, for the method shown. Some results given as binding are weak or reduced against the parent protein; the word gives no strength.

As for “PaBfrB co-expressed with SoBfr1 and SoBfr2 in S. oneidensis Δbfr12 (from UniProt Q9HY79 1-158)”, the binding result in experiment [1] and in experiment [2] was “binds” in each case.
